# No constants are given. Whether binding was seen depends on the method and setting.
# The chains behind the UniProt entries cited, without tags or fusion partners. Where a name states a change or a piece, a line headed by the entry shows the natural chain unless it says otherwise. A line that says so, or that is headed by a name, gives the form on record, which may keep a tag or linker. Residues count along the entry.
# Human DNAJB6b (O75190-2, form named): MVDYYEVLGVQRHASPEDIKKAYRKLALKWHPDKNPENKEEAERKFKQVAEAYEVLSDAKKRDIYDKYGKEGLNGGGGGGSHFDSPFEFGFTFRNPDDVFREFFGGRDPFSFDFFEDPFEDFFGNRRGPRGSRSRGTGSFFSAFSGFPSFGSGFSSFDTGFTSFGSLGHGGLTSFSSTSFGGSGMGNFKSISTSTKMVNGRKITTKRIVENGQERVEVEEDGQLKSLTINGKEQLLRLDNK
# ΔST JB6 (DNAJB6b with the deletion of residues 132-184 from wt) (O75190-2, form named): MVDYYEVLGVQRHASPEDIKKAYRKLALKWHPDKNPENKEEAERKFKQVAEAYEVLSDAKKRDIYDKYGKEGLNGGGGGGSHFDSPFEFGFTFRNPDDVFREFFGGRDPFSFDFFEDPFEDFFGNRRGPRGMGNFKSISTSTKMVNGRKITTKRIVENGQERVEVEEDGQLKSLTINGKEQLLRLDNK
# Assays:
# [1] = molecular target: Human DNAJB6b (human) (UniProt O75190); experiment: mass photometry; 10 nM pre-equilibrated JB6 (below the cmc), room temperature and 37 °C; buffer filtered through a 5 kDa cutoff spin-filter; compared with eight proteins of known mass; both purified
# [2] = molecular target: ΔST JB6 (DNAJB6b with the deletion of residues 132-184 from wt) (human) (UniProt O75190); experiment: mass photometry; ΔST JB6 as one of the proteins of known mass, ambient temperature; both purified
# [3] = molecular target: ΔST JB6 (DNAJB6b with the deletion of residues 132-184 from wt) (human) (UniProt O75190); experiment: AUC; sedimentation velocity; ΔST JB6 shown together with the pH series of JB6; concentration and pH not stated; both purified
binding [2],binding [3],Substance,binding [1]
–,–,Human DNAJB6b (from UniProt O75190-2 1-241),no binding (condition: at 10 nM JB6 (below the cmc))
no binding,no binding,ΔST JB6 (DNAJB6b with the deletion of residues 132-184 from wt) (from UniProt O75190-2 1-241),–
